Assay results as given in publication PMC6695453, “Peptide translocation by the lysosomal ABC transporter TAPL is regulated by coupling efficiency and activation energy” (Scientific Reports, 2019).
No constants are given. Whether binding was seen depends on the method and setting. Some entries that bind do so weakly or less than the wild type. For some assays here: Sequences can lack the tags named with a protein.

T1: Atto-655 labeled 9-mer peptide RRYC^Atto-655KSTEL
T1 sequence (peptide, Atto-655 (maleimide) on the single cysteine (RRYC^Atto-655KSTEL)): RRYCKSTEL

T2: coreTAPL (core complex of the transporter associated with antigen processing-like, ABCB9) fused C-terminally to mVenus (human) (UniProt Q9NP78)
T2 sequence: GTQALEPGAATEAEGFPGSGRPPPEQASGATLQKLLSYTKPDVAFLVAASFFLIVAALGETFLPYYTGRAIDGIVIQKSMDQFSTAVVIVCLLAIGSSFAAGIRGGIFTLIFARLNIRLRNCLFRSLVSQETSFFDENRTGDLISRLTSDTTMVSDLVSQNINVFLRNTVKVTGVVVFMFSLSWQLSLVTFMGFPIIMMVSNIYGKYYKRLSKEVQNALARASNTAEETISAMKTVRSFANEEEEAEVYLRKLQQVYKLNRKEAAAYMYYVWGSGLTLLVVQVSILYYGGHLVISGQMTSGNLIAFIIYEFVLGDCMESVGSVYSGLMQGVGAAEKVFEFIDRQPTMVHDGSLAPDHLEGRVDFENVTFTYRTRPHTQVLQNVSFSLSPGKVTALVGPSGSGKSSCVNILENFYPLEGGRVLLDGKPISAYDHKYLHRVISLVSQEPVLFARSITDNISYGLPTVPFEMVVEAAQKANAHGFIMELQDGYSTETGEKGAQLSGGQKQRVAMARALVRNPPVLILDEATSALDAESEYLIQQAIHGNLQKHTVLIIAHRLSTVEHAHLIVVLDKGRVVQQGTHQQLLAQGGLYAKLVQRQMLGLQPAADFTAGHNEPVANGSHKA

B1: 9-mer peptide … (peptide)
peptide: RRYQKSTEL

Tests used:
[1] = biological target: T1, Atto-655 labeled 9-mer peptide RRYC^Atto-655KSTEL; assay: MST; competition: 100 nM 9-mer^Atto-655 peptide and 10 µM TAPL with unlabeled competitor peptide (18-mer titrated; 9-mer at 4 mM); 22 °C; Ki fitted considering competitor depletion; both purified
[2] = biological target: T2, coreTAPL (core complex of the transporter associated with antigen processing-like, ABCB9) fused C-terminally to mVenus (human); assay: as above

Molecule	binding [1]	binding [2]
coreTAPL (core complex of the transporter associated with antigen processing-like, ABCB9) fused C-terminally to mVenus (from UniProt Q9NP78 143-766) (domain or fragment)	binds	–
B1	–	binds
